Experimental findings from publication PMC12487888 are described below.

Amino acid sequences for entries named in this document (tags omitted). Residues count along the entry.
UniProt Q9ZFV5, residues 100-229: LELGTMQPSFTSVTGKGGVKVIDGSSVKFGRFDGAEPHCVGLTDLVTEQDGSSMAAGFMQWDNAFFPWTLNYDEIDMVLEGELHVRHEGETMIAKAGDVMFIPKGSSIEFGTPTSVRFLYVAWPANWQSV
UniProt P19265, residues 1-20: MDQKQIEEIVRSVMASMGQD

Results are given in words; binding and its absence hold for the method and conditions named.

This test addresses EutQ C-terminal domain (EutQ^100–229) (S. Typhimurium LT2) (UniProt Q9ZFV5). The test can be described thus: ITC; 20 μM protein in the cell, 200 to 400 μM peptide in the syringe; 19 injections, 25°C; 20 mM Na2HPO4, 20 mM NaCl, pH 6.5; both purified. (In general: Isothermal titration calorimetry measures the heat released or taken up as one component is titrated into another.)

In the case of “EutC^1–20 encapsulation peptide (from UniProt P19265 1-20)”, the binding result is listed as “no binding (tested: 20 μM protein, 200 to 400 μM peptide)”.
